Here are results for one molecule from publication PMC9597353, “Mitoguardin-2–mediated lipid transfer preserves mitochondrial morphology and lipid droplet formation” (The Journal of Cell Biology, 2022).

For this assay, the target named is C. elegans MIGA2 cytosolic fragment with the coiled-coil of the linker region and the C-terminal domain (residues 106-496) (C. elegans) (UniProt Q21096). Put plainly: crystal structure; sitting drop, 18°C, 0.2 M sodium malonate pH 7.4, 22% PEG3350; spacegroup P3_(1)21, four monomers per asymmetric unit; molecular replacement with an AlphaFold2 model; both purified.

Results are given in words; binding and its absence hold for the method and conditions named. Some results given as binding are weak or reduced against the parent protein; the word gives no strength.

B1: C. elegans MIGA2 cytosolic fragment with the coiled-coil of the linker region and the C-terminal domain (residues 106-496) (domain or fragment, UniProt Q21096 106-496, looked up)
chain: SMNPIEADITSGQELCTELRKTIEKVHHNLEMVKNRSSKDMERSIKIEGILKGLKQVEDEIVLLVPQMEDFRDDNMEFYSVSGGSGYAGSVRTGRSRTLSVLSDDSFRSAVEEFACDIDDIDFVSDAANLDKNELRFLDEGMQAALNGEVKYRKSRMEFCKCDSETDFAAKLYCVRQALTNALKDEHKRVWLAKCGRTLLADFIRHTKQDPVKFFNAYDEMLEYVSNDRNEEQLRQDVEGRGVCETGFYDVAIDFIILDAFEDLKSPPSAVYSVTKNYFMSMSMKYSTLNTIIWSIIKSKRQRLKNPDGFIAKFYNISETVMPAITLGFLGTDERLGELCQYFKEQVVQFVLDVFNTQKVCYRSLEEMSEDVWIVMRNRLEAVQTRMSNEL
notes: C. elegans MIGA (mitoguardin homolog), Uniprot Q21096, residues 106-496: coiled-coil segment of the linker region and the C-terminal domain; Co-purifies with glycerophospholipid from E. coli; Plasmids of the study are in Addgene (192832, 192833, 192834, 192835, 192837, 192866, 192867); also called CeMIGA2_(long); CeMIGA_(long); source: E. coli C43 (DE3), purified (Ni-NTA, sumo protease, second …)
For the molecule B1, the binding result was “binds”.
